The source gives many values for each of these; only a part stands here.
Test system: mRNA expression in peripheral blood of individuals with DMD
Assay: Whole-blood gene expression microarray: DMD administered deflazacort vs DMD administered prednisone
Assay type: in vivo, human
Experimental: Fifteen ml of blood was collected from each individual into 6 PAXgene® Vacutainer® tubes (PreAnalytiX, Germany) by antecubital fossa venipuncture. PAXgene® tubes contain a proprietary reagent that immediately stabilizes RNA, thus reducing RNA degradation and minimizing gene expression changes following phlebotomy. The tubes were then inverted 20 times, then remained undisturbed for 2 h at room temperature (about 19° C. to about 22° C.), and then stored at -70° C. until processed. Total RNA was isolated using the Paxgene® blood RNA kit (PreAnalytiX, Germany) according to the manufacturers instructions. The RNA isolated is from all cells in whole blood. Typical yields of total RNA isolated from about 7.5 ml of human whole blood were between 10 μg RNA and 40 μg RNA. RNA quality and purity was analyzed by spectrophotometry using the Nanodrop ND-1000, and RNA integrity was analyzed using the Agilent 2100 Bioanalyzer. […] Sample labeling, hybridization to chips, and image scanning were performed using standard Affymetrix protocols. For each whole blood sample from control individuals and individuals with DMD, total RNA was labeled using the One-Cycle Target Labeling protocol and hybridized to the arrays. […] Double-stranded cDNA synthesis, biotin-labeled cRNA synthesis, and cRNA fragmentation were performed according to the Affymetrix GeneChip Eukaryotic Expression Analysis protocol. The labeled, fragmented cRNA (15 μg) was hybridized at 45° C. overnight. After hybridization, the array was washed and stained. The arrays were scanned with an argon-ion laser at λ=570 nm, with a resolution of 3 μm/pixel (Affymetrix, Inc.). After scanning the array, the raw probe level values for each probe were saved in Affymetrix.cel files. […] Statistical analyses, including t-test analyses, unsupervised hierarchical clustering, and principal component analyses were conducted using Genespring 7.2 software ([…]® 7, Silicon Genetics, Redwood City Calif.). […] Corrections for multiple comparisons used a Benjamini-Hochberg False Discovery Rate (FDR) of 0.05, disclosed in Tang et al., J Cereb Blood Flow Metab 26 (2006) 1089, which is expressly incorporated by reference herein in its entirety. […] Sample processing and array hybridization, probe-level data analysis, and statistical analysis were identical to Example 1.

CC(=O)OCC(=O)[C@@]12N=C(C)O[C@@H]1C[C@H]1[C@@H]3CCC4=CC(=O)C=C[C@]4(C)[C@H]3[C@@H](O)C[C@@]12C [deflazacort]
p-value (AA207241, nucleic acid 2304, vs. prednisone): 0.0344
p-value (AA806989, nucleic acid 2287, vs. prednisone): 0.017
p-value (AA838727, nucleic acid 2282, vs. prednisone): 0.0115
p-value (AF086554, nucleic acid 2328, vs. prednisone): 0.043
p-value (AF116653, nucleic acid 2303, vs. prednisone): 0.0338
p-value (AI090764, nucleic acid 2280, vs. prednisone): 0.00719
p-value (AI302271, nucleic acid 2295, vs. prednisone): 0.0243
p-value (AI350995, nucleic acid 2277, vs. prednisone): 0.00433
p-value (AI371550, nucleic acid 2301, vs. prednisone): 0.0334
p-value (AI718964, nucleic acid 2292, vs. prednisone): 0.0211
p-value (AI800713, nucleic acid 2297, vs. prednisone): 0.0299
p-value (AI916948, nucleic acid 1660, vs. prednisone): 0.0303
p-value (AI985021, nucleic acid 1350, vs. prednisone): 0.0424
p-value (AK026267, nucleic acid 2288, vs. prednisone): 0.0176
p-value (AK026679, nucleic acid 2331, vs. prednisone): 0.044
p-value (AK057701, nucleic acid 2296, vs. prednisone): 0.0246
p-value (AL117451, nucleic acid 2335, vs. prednisone): 0.0472
p-value (AL119001, nucleic acid 2278, vs. prednisone): 0.00572
p-value (AU120130, nucleic acid 2334, vs. prednisone): 0.047
p-value (AW130600, nucleic acid 2276, vs. prednisone): 0.00258
p-value (AW293956, nucleic acid 2300, vs. prednisone): 0.0326
p-value (AW340891, nucleic acid 729, vs. prednisone): 0.0312
p-value (AW451107, nucleic acid 2283, vs. prednisone): 0.0133
p-value (AW954199, nucleic acid 2333, vs. prednisone): 0.0452
p-value (BC008462, nucleic acid 2294, vs. prednisone): 0.0226
p-value (BC016013, nucleic acid 2279, vs. prednisone): 0.00609
p-value (BC035170, nucleic acid 2290, vs. prednisone): 0.0206
p-value (BC035958, nucleic acid 2305, vs. prednisone): 0.0353
p-value (BC040914, nucleic acid 2289, vs. prednisone): 0.0182
p-value (BE739287, nucleic acid 2286, vs. prednisone): 0.017
p-value (BF055351, nucleic acid 334, vs. prednisone): 0.00555
p-value (BF438386, nucleic acid 2291, vs. prednisone): 0.0209
p-value (BF514098, nucleic acid 2330, vs. prednisone): 0.0439
p-value (BG288330, nucleic acid 2299, vs. prednisone): 0.0309
p-value (BG389789, nucleic acid 2302, vs. prednisone): 0.0336
p-value (BGR, AW341515, nucleic acid 2310, vs. prednisone): 0.00516
p-value (BM728567, nucleic acid 2293, vs. prednisone): 0.0214
p-value (C1orf128, AF271784, nucleic acid 2311, vs. prednisone): 0.031
p-value (CA444630, nucleic acid 1377, vs. prednisone): 0.0205
p-value (CDC27, AA166684, nucleic acid 2312, vs. prednisone): 0.0359
p-value (CDNA FLJ12367 fis, clone MAMMA1002413, Genbank AL119001, Nucleic Acid No. 2278): 0.00572
p-value (CDNA FLJ14081 fis, clone HEMBB1002280, Genbank BM728567, Nucleic Acid No. 2293): 0.0214
p-value (CDNA FLJ33139 fis, clone UTERU1000109, Genbank AK057701, Nucleic Acid No. 2296): 0.0246
p-value (CDNA FLJ39805 fis, clone SPLEN2007951, Genbank CA444630, Nucleic Acid No. 1377): 0.0205
p-value (CDNA FLJ41375 fis, clone BRCAN2007700, Genbank BE739287, Nucleic Acid No. 2286): 0.017
p-value (CDNA FLJ43285 fis, clone MESAN2000067, Genbank AI302271, Nucleic Acid No. 2295): 0.0243
p-value (CDNA FLJ43311 fis, clone NT2RI2009855, Genbank AI985021, Nucleic Acid No. 1350): 0.0424
p-value (CDNA FLJ46440 fis, clone THYMU3016022, Genbank BG288330, Nucleic Acid No. 2299): 0.0309
p-value (CDNA clone IMAGE: 4769453, Genbank AA806989, Nucleic Acid No. 2287): 0.017
p-value (CDNA clone IMAGE: 4769453, Genbank AI350995, Nucleic Acid No. 2277): 0.00433
p-value (CDNA clone IMAGE: 6254031, Genbank AI800713, Nucleic Acid No. 2297): 0.0299
p-value (Clone 25194 mRNA sequence, Genbank BF438386, Nucleic Acid No. 2291): 0.0209
p-value (FGFR1OP2, W74643, nucleic acid 1750, vs. prednisone): 0.0301
p-value (FLJ37562, BF436799, nucleic acid 2313, vs. prednisone): 0.0328
p-value (Full length insert cDNA YR33G07, Genbank AW340891, Nucleic Acid No. 729): 0.0312
p-value (Full length insert cDNA YR33G07, Genbank H48516, Nucleic Acid No. 2285): 0.0165
p-value (Genbank AA207241, Nucleic Acid No. 2304): 0.0344
p-value (Genbank AF116653, Nucleic Acid No. 2303): 0.0338
p-value (Genbank AI371550, Nucleic Acid No. 2301): 0.0334
p-value (Genbank AK026267, Nucleic Acid No. 2288): 0.0176
p-value (Genbank AL117451, Nucleic Acid No. 2335): 0.0472
p-value (Genbank AU120130, Nucleic Acid No. 2334): 0.047
p-value (Genbank BC035170, Nucleic Acid No. 2290): 0.0206
p-value (Genbank BC035958, Nucleic Acid No. 2305): 0.0353
p-value (Genbank BF055351, Nucleic Acid No. 334): 0.00555
p-value (Genbank BG389789, Nucleic Acid No. 2302): 0.0336
p-value (Genbank H43637, Nucleic Acid No. 2306): 0.04
p-value (Genbank N35922, Nucleic Acid No. 2298): 0.0304
p-value (Genbank NM_173704, Nucleic Acid No. 2284): 0.0147
p-value (Genbank U20489, Nucleic Acid No. 2281): 0.0108
p-value (H43637, nucleic acid 2306, vs. prednisone): 0.04
p-value (H48516, nucleic acid 2285, vs. prednisone): 0.0165
p-value (H94876, nucleic acid 2329, vs. prednisone): 0.0435
p-value (HBLD2, NM_030940, nucleic acid 2314, vs. prednisone): 0.0311
p-value (Homo sapiens, clone IMAGE: 4272847, mRNA, Genbank BC008462, Nucleic Acid No. 2294): 0.0226
p-value (Homo sapiens, clone IMAGE: 4695648, mRNA, Genbank BC016013, Nucleic Acid No. 2279): 0.00609
p-value (Homo sapiens, clone IMAGE: 5745627, mRNA, Genbank BC040914, Nucleic Acid No. 2289): 0.0182
p-value (Hypothetical gene supported by AK024248, AL137733, Genbank AF086554, Nucleic Acid No. 2328): 0.043
p-value (KLF9, NM_001206, nucleic acid 2315, vs. prednisone): 0.0319
p-value (LOC51326, AF119889, nucleic acid 2316, vs. prednisone): 0.0429
p-value (MLC1SA, NM_002475, nucleic acid 2317, vs. prednisone): 0.0202
p-value (MRNA, cDNA DKFZp564O0862, Genbank AW130600, Nucleic Acid No. 2276): 0.00258
p-value (MTF1, NM_005955, nucleic acid 2130, vs. prednisone): 5.84E−05
p-value (MTP18, AF060924, nucleic acid 2318, vs. prednisone): 0.0129
p-value (MYADM, BE908995, nucleic acid 2132, vs. prednisone): 0.0206
p-value (MYLIP, AW292746, nucleic acid 2133, vs. prednisone): 0.00321
p-value (MYO1F, BF740152, nucleic acid 2134, vs. prednisone): 0.0266
p-value (N4BP1, AB014515, nucleic acid 2135, vs. prednisone): 0.0291
p-value (N35922, nucleic acid 2298, vs. prednisone): 0.0304
p-value (NCF2, BC001606, nucleic acid 2136, vs. prednisone): 0.0348
p-value (NCOA1, BF576458, nucleic acid 2137, vs. prednisone): 0.00399
p-value (NCOA6, AF128458, nucleic acid 926, vs. prednisone): 0.0221

From patent publication US20110217715A1, “GENE EXPRESSION IN DUCHENNE MUSCULAR DYSTROPHY” (CHILDREN'S HOSPITAL MEDICAL CENTER, priority 2008, published 2011)
